According to patent US12180304B2 (Zhejiang University, priority 2020, dated 2024):
Some of these results come from one statement about several compounds together.

Target: T1, intact recombinant antibody against clothianidin and dinotefuran (Mus musculus, UniProt P01837+P01868)
T1 construct: The heavy and light chain variable region genes were ligated to linearized expression vectors pCDNA3.4-Mouse-IgG1 and pCDNA3.4-Mouse-Kappa; mouse IgG1 heavy chain constant region (fusion partner); mouse kappa light chain constant region (fusion partner); made in house; host or cells: HEK293F cells, double-plasmid transfection, Protein A purification
Test: heterologous indirect competitive ELISA (thiacloprid-OVA coating antigen)
Format: binding
Experimental: In the early stage of preparation of parental ascitic monoclonal antibodies, a difference in sensitivity was compared between the homologous indirect competitive ELISA (coating antigen was clothianidin-OVA) and the heterologous indirect ELISA (coating antigens were thiacloprid-OVA and imidaclothiz-OVA).
In the present disclosure, the specificity of the antibody was evaluated by detecting the cross-reactivity with eight common neonicotinoid insecticides.

O=[N+]([O-])/N=C1\NCCN1Cc1cnc(Cl)s1 [imidaclothiz]
cross-reactivity: < 0.5%
